{
  "sequences": {"note": "Chains of the proteins cited; added tags and fusions are not shown. Lines headed by an entry give the natural chain unless they say otherwise; changes in a name come on top.", "UniProt Q6IAA8, whole entry, looked up": "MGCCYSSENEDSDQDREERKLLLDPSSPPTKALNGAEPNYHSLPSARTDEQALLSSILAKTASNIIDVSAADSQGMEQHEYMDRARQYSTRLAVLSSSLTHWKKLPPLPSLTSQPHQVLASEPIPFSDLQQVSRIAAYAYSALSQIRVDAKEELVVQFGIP", "UniProt Q9H008": "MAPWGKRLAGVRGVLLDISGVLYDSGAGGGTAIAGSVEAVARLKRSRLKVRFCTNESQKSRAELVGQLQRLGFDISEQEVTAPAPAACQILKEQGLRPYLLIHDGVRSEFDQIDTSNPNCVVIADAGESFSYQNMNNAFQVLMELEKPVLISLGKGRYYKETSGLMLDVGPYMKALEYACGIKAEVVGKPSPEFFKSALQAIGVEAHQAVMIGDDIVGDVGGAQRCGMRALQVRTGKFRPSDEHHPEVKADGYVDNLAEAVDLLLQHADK", "UniProt Q8N9N7": "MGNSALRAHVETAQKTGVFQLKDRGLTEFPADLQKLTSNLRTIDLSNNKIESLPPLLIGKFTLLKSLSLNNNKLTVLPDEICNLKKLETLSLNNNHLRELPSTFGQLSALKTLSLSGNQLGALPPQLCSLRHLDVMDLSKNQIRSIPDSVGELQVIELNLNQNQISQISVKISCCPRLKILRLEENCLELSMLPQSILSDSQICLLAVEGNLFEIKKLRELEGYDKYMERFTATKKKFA", "UniProt P48059, whole entry, looked up": "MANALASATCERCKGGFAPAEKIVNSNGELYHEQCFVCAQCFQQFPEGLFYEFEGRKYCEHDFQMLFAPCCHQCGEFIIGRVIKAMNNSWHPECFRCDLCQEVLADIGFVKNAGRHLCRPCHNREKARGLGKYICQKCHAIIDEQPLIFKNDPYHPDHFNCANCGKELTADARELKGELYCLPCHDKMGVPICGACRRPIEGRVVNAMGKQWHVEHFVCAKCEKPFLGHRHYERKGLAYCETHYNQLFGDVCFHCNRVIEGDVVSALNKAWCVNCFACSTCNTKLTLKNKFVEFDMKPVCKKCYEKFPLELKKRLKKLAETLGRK", "UniProt Q15031": "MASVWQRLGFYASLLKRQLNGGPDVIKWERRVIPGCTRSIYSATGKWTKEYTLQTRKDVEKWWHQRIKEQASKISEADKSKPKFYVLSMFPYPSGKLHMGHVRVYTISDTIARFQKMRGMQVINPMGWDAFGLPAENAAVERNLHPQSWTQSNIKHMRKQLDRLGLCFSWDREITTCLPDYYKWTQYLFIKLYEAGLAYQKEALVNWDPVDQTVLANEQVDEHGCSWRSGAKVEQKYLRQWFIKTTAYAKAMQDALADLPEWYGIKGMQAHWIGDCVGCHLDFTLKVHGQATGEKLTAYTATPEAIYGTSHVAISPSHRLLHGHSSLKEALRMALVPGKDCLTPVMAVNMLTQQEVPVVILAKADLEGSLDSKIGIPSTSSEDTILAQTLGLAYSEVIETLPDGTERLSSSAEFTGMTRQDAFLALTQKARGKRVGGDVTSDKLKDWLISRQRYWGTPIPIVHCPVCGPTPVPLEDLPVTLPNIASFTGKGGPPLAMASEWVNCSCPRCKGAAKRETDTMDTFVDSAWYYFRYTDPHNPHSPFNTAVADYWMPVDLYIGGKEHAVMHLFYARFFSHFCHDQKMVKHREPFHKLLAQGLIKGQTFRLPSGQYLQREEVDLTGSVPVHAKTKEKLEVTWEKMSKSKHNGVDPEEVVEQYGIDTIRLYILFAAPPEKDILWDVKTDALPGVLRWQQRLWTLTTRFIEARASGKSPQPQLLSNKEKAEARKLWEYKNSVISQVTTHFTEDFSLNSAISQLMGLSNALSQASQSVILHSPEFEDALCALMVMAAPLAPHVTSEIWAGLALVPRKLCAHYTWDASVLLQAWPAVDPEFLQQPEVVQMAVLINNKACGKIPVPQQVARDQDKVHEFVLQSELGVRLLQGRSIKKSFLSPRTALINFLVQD", "UniProt Q9BRT6": "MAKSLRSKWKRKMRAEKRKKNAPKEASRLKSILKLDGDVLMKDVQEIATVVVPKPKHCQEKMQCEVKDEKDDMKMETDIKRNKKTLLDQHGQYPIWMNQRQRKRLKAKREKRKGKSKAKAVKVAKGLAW", "UniProt Q9UIC8": "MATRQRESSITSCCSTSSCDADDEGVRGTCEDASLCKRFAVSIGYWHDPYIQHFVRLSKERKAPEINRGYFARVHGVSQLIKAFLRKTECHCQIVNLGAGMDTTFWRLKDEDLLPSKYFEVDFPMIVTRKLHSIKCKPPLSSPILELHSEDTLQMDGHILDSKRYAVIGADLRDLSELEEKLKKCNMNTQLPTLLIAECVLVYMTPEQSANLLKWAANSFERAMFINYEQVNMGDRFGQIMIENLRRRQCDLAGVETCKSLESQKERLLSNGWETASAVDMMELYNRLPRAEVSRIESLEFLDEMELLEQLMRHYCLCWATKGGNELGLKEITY", "UniProt Q86U70": "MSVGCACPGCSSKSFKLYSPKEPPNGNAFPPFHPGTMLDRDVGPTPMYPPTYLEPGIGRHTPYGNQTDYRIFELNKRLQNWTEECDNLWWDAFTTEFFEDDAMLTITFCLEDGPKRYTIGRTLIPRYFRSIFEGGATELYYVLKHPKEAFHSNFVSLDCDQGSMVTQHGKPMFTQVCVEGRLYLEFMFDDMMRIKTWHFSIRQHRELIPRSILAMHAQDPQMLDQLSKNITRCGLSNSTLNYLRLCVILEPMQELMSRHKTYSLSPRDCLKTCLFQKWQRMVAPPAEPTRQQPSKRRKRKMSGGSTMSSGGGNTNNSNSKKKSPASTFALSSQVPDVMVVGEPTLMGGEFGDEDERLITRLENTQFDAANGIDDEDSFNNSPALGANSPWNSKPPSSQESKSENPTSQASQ", "UniProt Q96BZ8": "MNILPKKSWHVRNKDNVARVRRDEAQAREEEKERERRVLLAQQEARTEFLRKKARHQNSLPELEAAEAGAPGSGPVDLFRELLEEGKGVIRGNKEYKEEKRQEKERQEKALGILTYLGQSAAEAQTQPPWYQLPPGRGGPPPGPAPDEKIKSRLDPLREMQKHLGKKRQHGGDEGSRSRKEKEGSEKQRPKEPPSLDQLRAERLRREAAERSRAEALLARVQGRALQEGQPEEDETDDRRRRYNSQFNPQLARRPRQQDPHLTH", "UniProt Q9H0V9": "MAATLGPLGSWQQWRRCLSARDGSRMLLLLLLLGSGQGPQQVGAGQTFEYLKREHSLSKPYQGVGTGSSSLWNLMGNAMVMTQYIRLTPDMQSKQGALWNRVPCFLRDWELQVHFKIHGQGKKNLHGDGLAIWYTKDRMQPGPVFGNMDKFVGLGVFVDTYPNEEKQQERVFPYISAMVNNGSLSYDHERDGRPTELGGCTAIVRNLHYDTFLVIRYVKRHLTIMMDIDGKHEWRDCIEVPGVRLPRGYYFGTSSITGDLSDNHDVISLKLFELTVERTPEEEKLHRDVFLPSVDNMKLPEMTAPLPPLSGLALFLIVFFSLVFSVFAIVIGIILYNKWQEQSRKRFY", "UniProt Q8TCA0": "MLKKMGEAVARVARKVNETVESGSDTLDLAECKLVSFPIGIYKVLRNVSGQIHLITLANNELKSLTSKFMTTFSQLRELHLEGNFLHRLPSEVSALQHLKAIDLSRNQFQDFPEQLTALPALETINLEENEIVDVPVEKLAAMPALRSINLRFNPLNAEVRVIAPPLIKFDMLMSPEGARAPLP", "UniProt P36776": "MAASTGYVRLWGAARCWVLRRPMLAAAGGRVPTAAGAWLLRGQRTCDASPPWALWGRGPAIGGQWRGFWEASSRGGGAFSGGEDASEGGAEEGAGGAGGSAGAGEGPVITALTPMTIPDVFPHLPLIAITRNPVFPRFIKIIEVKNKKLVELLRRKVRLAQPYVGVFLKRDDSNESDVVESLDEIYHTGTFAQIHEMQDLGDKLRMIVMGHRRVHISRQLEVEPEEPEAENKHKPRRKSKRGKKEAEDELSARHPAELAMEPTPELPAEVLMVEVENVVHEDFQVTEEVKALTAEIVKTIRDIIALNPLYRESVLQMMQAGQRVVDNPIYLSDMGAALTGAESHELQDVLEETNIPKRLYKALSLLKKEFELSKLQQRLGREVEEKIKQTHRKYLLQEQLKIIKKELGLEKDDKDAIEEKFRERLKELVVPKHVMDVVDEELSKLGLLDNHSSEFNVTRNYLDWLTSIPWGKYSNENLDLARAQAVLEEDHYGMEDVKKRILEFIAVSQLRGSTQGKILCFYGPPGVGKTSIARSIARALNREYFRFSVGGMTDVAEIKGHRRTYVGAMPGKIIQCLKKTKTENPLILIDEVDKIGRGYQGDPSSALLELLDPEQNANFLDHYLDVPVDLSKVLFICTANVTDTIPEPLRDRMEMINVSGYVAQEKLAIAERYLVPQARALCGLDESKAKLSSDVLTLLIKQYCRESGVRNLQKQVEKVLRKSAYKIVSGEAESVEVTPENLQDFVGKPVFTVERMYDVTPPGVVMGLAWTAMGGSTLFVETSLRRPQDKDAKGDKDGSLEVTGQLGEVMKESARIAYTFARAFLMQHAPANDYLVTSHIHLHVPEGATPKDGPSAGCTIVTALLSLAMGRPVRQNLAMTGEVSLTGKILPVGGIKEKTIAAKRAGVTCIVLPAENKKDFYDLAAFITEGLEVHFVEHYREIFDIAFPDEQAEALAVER", "UniProt Q12907": "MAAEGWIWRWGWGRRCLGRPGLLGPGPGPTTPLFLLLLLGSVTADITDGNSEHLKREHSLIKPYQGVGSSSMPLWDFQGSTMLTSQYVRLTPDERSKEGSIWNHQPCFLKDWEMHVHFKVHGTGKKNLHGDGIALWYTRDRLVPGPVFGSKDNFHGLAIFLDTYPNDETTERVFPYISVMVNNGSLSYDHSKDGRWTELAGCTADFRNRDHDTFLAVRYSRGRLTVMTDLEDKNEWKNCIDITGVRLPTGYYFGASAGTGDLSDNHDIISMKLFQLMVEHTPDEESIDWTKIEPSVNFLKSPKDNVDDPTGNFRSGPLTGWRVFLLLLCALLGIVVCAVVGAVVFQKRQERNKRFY", "UniProt Q9NS86": "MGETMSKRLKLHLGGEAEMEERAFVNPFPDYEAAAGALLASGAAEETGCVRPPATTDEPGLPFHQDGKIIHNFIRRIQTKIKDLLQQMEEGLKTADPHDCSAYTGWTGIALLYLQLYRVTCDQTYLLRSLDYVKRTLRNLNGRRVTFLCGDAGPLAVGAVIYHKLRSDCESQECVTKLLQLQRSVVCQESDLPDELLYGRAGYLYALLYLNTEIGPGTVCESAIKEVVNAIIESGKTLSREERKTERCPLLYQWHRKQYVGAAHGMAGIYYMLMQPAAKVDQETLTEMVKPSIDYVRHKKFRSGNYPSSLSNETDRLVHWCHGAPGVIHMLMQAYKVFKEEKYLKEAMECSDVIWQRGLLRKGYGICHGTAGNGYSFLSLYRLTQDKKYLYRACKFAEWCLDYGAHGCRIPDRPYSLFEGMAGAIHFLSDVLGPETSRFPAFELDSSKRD", "UniProt P13796": "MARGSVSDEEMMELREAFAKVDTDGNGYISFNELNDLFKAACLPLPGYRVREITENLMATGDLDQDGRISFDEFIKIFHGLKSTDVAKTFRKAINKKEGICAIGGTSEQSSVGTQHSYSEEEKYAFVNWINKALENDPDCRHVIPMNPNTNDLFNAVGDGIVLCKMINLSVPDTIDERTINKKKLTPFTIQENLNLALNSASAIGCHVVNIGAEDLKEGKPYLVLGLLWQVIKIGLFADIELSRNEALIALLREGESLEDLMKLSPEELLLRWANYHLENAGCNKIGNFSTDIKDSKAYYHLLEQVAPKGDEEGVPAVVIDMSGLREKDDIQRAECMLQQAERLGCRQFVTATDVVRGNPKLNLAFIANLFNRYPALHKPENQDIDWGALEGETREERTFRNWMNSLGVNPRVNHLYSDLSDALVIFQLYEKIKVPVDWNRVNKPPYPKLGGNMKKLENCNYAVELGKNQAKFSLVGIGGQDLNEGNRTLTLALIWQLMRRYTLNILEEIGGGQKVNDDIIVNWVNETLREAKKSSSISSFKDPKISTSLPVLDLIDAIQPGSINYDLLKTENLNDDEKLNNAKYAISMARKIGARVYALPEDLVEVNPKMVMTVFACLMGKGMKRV", "UniProt P53671": "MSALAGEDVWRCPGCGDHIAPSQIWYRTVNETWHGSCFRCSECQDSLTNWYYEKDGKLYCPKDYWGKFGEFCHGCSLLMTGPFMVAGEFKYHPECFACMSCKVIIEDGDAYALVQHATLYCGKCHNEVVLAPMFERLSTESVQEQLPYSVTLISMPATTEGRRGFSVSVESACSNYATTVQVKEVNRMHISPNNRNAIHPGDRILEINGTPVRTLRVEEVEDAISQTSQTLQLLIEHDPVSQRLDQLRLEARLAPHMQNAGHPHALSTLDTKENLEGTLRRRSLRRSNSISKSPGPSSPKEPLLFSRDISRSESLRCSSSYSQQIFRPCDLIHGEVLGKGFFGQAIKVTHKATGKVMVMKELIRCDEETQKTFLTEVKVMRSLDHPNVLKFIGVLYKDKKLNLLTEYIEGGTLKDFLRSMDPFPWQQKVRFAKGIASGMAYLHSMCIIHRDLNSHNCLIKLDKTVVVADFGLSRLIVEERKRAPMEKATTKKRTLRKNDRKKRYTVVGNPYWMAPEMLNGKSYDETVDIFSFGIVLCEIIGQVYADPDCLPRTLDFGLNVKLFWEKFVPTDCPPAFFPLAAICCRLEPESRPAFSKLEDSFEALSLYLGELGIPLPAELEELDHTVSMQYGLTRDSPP"},
  "source": "the supplement of paper PMC10849652",
  "note": "The list shows a part of the results.",
  "data": [
    {"compound": "CN1CCC(CNc2ccc3ncc(-c4cccc(OC(F)(F)F)c4)n3n2)CC1", "assay": "log2 fold change, soluble protein after heating vs DMSO (PISA); higher = thermal stabilisation; K562 cells, 10 uM, 30 min; active = over 0.2 and 3.5 SD of the protein, either way, in both replicates (recomputed)", "how_it_was_run": "(§1)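 K562 cells at 2×10^6 cells/mL were exposed to 10 μM compound for 30 min, then aliquots were heated for 3 min across 48°C-58°C, pooled, and extracted in PBS containing 0.5% NP-40 at 4°C. The supernatant after 21,000xg for 90 min was taken as soluble protein and measured by TMTpro 16plex LC-MS/MS with channel sums equalised. Thermal stability is reported relative to control samples, with values from duplicates. Fold changes are given on a log2 scale.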", "values": [
      {"target": "LARS (UniProt Q9P2J5)", "log2 fold change": "inactive: 0.031"},
      {"target": "KYAT3 (UniProt Q6YP21)", "log2 fold change": "inactive: -0.015"},
      {"target": "LAMTOR1 (UniProt Q6IAA8)", "log2 fold change": "inactive: -0.137"},
      {"target": "LHPP (UniProt Q9H008)", "log2 fold change": "inactive: -0.088"},
      {"target": "LAP3 (UniProt P28838)", "log2 fold change": "inactive: 0.038"},
      {"target": "LANCL1 (UniProt O43813)", "log2 fold change": "inactive: -0.097"},
      {"target": "LASP1 (UniProt Q14847)", "log2 fold change": "inactive: 0.001"},
      {"target": "LRRC47 (UniProt Q8N1G4)", "log2 fold change": "inactive: 0.01"},
      {"target": "L3HYPDH (UniProt Q96EM0)", "log2 fold change": "inactive: -0.049"},
      {"target": "LRRC57 (UniProt Q8N9N7)", "log2 fold change": "inactive: -0.031"},
      {"target": "LIMS1 isoform 3 (UniProt P48059)", "log2 fold change": "inactive: -0.062"},
      {"target": "LARS2 (UniProt Q15031)", "log2 fold change": "inactive: -0.092"},
      {"target": "LLPH (UniProt Q9BRT6)", "log2 fold change": "inactive: 0.547"},
      {"target": "LACTB2 (UniProt Q53H82)", "log2 fold change": "inactive: 0.015"},
      {"target": "LCMT1 (UniProt Q9UIC8)", "log2 fold change": "inactive: 0.015"},
      {"target": "LDB1 (UniProt Q86U70)", "log2 fold change": "inactive: 0.054"},
      {"target": "LENG1 (UniProt Q96BZ8)", "log2 fold change": "inactive: -0.056"},
      {"target": "LIG1 (UniProt P18858)", "log2 fold change": "inactive: -0.141"},
      {"target": "LETM1 (UniProt O95202)", "log2 fold change": "inactive: -0.205"},
      {"target": "LDHB (UniProt P07195)", "log2 fold change": "inactive: 0.035"},
      {"target": "LMAN2L isoform 2 (UniProt Q9H0V9)", "log2 fold change": "inactive: -0.101"},
      {"target": "LPCAT1 (UniProt Q8NF37)", "log2 fold change": "inactive: -0.092"},
      {"target": "LRRC20 (UniProt Q8TCA0)", "log2 fold change": "inactive: 0.052"},
      {"target": "LCLAT1 (UniProt Q6UWP7)", "log2 fold change": "inactive: 0.175"},
      {"target": "LAMTOR2 (UniProt Q9Y2Q5)", "log2 fold change": "inactive: -0.039"},
      {"target": "LONP1 (UniProt P36776)", "log2 fold change": "inactive: 0.081"},
      {"target": "LIN28B (UniProt Q6ZN17)", "log2 fold change": "inactive: 0.077"},
      {"target": "LMAN2 (UniProt Q12907)", "log2 fold change": "inactive: -0.021"},
      {"target": "LANCL2 (UniProt Q9NS86)", "log2 fold change": "inactive: 0.027"},
      {"target": "LCP1 (UniProt P13796)", "log2 fold change": "inactive: -0.006"},
      {"target": "LIMK2 isoform 3 (UniProt P53671)", "log2 fold change": "inactive: -0.186"},
      {"target": "LRRC40 (UniProt Q9H9A6)", "log2 fold change": "inactive: -0.206"}
    ]},
    {"compound": "CN1CCN(CCOc2cc(OC3CCOCC3)c3c(Nc4c(Cl)ccc5c4OCO5)ncnc3c2)CC1 [saracatinib]", "assay": "log2 fold change, soluble protein after heating vs DMSO (PISA); higher = thermal stabilisation; K562 cells, 10 uM, 30 min; active = over 0.2 and 3.5 SD of the protein, either way, in both replicates (recomputed)", "how_it_was_run": "as §1", "values": [
      {"target": "LARS (UniProt Q9P2J5)", "log2 fold change": "inactive: -0.053"},
      {"target": "KYAT3 (UniProt Q6YP21)", "log2 fold change": "inactive: 0.026"},
      {"target": "LAMTOR1 (UniProt Q6IAA8)", "log2 fold change": "inactive: -0.011"},
      {"target": "LHPP (UniProt Q9H008)", "log2 fold change": "inactive: -0.019"},
      {"target": "LAP3 (UniProt P28838)", "log2 fold change": "inactive: 0.028"},
      {"target": "LANCL1 (UniProt O43813)", "log2 fold change": "inactive: 0.019"},
      {"target": "LASP1 (UniProt Q14847)", "log2 fold change": "inactive: 0.042"},
      {"target": "LRRC47 (UniProt Q8N1G4)", "log2 fold change": "inactive: 0.043"},
      {"target": "L3HYPDH (UniProt Q96EM0)", "log2 fold change": "inactive: -0.039"},
      {"target": "LRRC57 (UniProt Q8N9N7)", "log2 fold change": "inactive: -0.028"},
      {"target": "LIMS1 isoform 3 (UniProt P48059)", "log2 fold change": "inactive: 0.008"},
      {"target": "LARS2 (UniProt Q15031)", "log2 fold change": "inactive: 0.04"},
      {"target": "LLPH (UniProt Q9BRT6)", "log2 fold change": "inactive: -0.114"},
      {"target": "LACTB2 (UniProt Q53H82)", "log2 fold change": "inactive: 0.084"},
      {"target": "LCMT1 (UniProt Q9UIC8)", "log2 fold change": "inactive: 0.002"},
      {"target": "LDB1 (UniProt Q86U70)", "log2 fold change": "inactive: 0.063"},
      {"target": "LENG1 (UniProt Q96BZ8)", "log2 fold change": "inactive: 0"},
      {"target": "LIG1 (UniProt P18858)", "log2 fold change": "inactive: -0.05"},
      {"target": "LETM1 (UniProt O95202)", "log2 fold change": "inactive: 0.005"},
      {"target": "LDHB (UniProt P07195)", "log2 fold change": "inactive: 0.013"},
      {"target": "LMAN2L isoform 2 (UniProt Q9H0V9)", "log2 fold change": "inactive: -0.016"},
      {"target": "LPCAT1 (UniProt Q8NF37)", "log2 fold change": "inactive: 0.023"},
      {"target": "LRRC20 (UniProt Q8TCA0)", "log2 fold change": "inactive: 0.05"},
      {"target": "LCLAT1 (UniProt Q6UWP7)", "log2 fold change": "inactive: 0.018"},
      {"target": "LAMTOR2 (UniProt Q9Y2Q5)", "log2 fold change": "inactive: -0.053"},
      {"target": "LONP1 (UniProt P36776)", "log2 fold change": "inactive: 0.03"},
      {"target": "LIN28B (UniProt Q6ZN17)", "log2 fold change": "inactive: -0.009"},
      {"target": "LMAN2 (UniProt Q12907)", "log2 fold change": "inactive: -0.004"},
      {"target": "LANCL2 (UniProt Q9NS86)", "log2 fold change": "inactive: 0.052"},
      {"target": "LCP1 (UniProt P13796)", "log2 fold change": "inactive: 0.057"},
      {"target": "LIMK2 isoform 3 (UniProt P53671)", "log2 fold change": "inactive: -0.12"},
      {"target": "LRRC40 (UniProt Q9H9A6)", "log2 fold change": "inactive: -0.064"}
    ]},
    {"compound": "CN1CCN(c2nc(C3=C(c4c[nH]c5ccccc45)C(=O)NC3=O)c3ccccc3n2)CC1 [sotrastaurin]", "assay": "log2 fold change, soluble protein after heating vs DMSO (PISA); higher = thermal stabilisation; K562 cells, 10 uM, 30 min; active = over 0.2 and 3.5 SD of the protein, either way, in both replicates (recomputed)", "how_it_was_run": "as §1", "values": [
      {"target": "LARS (UniProt Q9P2J5)", "log2 fold change": "inactive: -0.1"},
      {"target": "KYAT3 (UniProt Q6YP21)", "log2 fold change": "inactive: 0.053"},
      {"target": "LAMTOR1 (UniProt Q6IAA8)", "log2 fold change": "inactive: -0.097"},
      {"target": "LHPP (UniProt Q9H008)", "log2 fold change": "inactive: 0.02"},
      {"target": "LAP3 (UniProt P28838)", "log2 fold change": "inactive: 0.038"},
      {"target": "LANCL1 (UniProt O43813)", "log2 fold change": "inactive: 0.009"},
      {"target": "LASP1 (UniProt Q14847)", "log2 fold change": "inactive: 0.025"},
      {"target": "LRRC47 (UniProt Q8N1G4)", "log2 fold change": "inactive: -0.014"},
      {"target": "L3HYPDH (UniProt Q96EM0)", "log2 fold change": "inactive: 0.036"},
      {"target": "LRRC57 (UniProt Q8N9N7)", "log2 fold change": "inactive: 0.002"},
      {"target": "LIMS1 isoform 3 (UniProt P48059)", "log2 fold change": "inactive: 0"},
      {"target": "LARS2 (UniProt Q15031)", "log2 fold change": "inactive: 0.003"},
      {"target": "LLPH (UniProt Q9BRT6)", "log2 fold change": "inactive: -0.025"},
      {"target": "LACTB2 (UniProt Q53H82)", "log2 fold change": "inactive: -0.031"},
      {"target": "LCMT1 (UniProt Q9UIC8)", "log2 fold change": "inactive: 0.056"},
      {"target": "LDB1 (UniProt Q86U70)", "log2 fold change": "inactive: 0.019"},
      {"target": "LENG1 (UniProt Q96BZ8)", "log2 fold change": "inactive: 0.019"},
      {"target": "LIG1 (UniProt P18858)", "log2 fold change": "inactive: -0.168"},
      {"target": "LETM1 (UniProt O95202)", "log2 fold change": "inactive: -0.012"},
      {"target": "LDHB (UniProt P07195)", "log2 fold change": "inactive: 0.052"},
      {"target": "LMAN2L isoform 2 (UniProt Q9H0V9)", "log2 fold change": "inactive: -0.024"},
      {"target": "LPCAT1 (UniProt Q8NF37)", "log2 fold change": "inactive: 0.025"},
      {"target": "LRRC20 (UniProt Q8TCA0)", "log2 fold change": "inactive: -0.071"},
      {"target": "LCLAT1 (UniProt Q6UWP7)", "log2 fold change": "inactive: 0.016"},
      {"target": "LAMTOR2 (UniProt Q9Y2Q5)", "log2 fold change": "inactive: -0.033"},
      {"target": "LONP1 (UniProt P36776)", "log2 fold change": "inactive: 0.034"},
      {"target": "LIN28B (UniProt Q6ZN17)", "log2 fold change": "inactive: 0.028"},
      {"target": "LMAN2 (UniProt Q12907)", "log2 fold change": "inactive: 0.008"},
      {"target": "LANCL2 (UniProt Q9NS86)", "log2 fold change": "inactive: 0.032"},
      {"target": "LCP1 (UniProt P13796)", "log2 fold change": "inactive: 0.039"},
      {"target": "LIMK2 isoform 3 (UniProt P53671)", "log2 fold change": "inactive: 0.055"},
      {"target": "LRRC40 (UniProt Q9H9A6)", "log2 fold change": "inactive: -0.093"}
    ]}
  ]
}
